According to article PMC6700799:
These are yes or no findings as the source states them, for the method shown. In cells and extracts the contact can be indirect. A yes stands for co-enrichment or nearness to the bait. Other partners may have been found. Sequences can lack the tags named with a protein.

Protein sequences, listed by entry. Tags and fused reporters are not part of them.
UniProt P09429: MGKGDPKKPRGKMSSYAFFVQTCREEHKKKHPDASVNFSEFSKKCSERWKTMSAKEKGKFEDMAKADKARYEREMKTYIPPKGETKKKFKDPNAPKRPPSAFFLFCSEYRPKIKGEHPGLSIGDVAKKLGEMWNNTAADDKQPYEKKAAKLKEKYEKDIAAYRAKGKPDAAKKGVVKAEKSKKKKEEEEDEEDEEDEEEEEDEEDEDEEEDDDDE

Biological target: T1, pHBLV-CMV-MCS-3flag-EF1-Zsgreen-puro tagged SEPT9 (UniProt Q9UHD8)
T1 sequence: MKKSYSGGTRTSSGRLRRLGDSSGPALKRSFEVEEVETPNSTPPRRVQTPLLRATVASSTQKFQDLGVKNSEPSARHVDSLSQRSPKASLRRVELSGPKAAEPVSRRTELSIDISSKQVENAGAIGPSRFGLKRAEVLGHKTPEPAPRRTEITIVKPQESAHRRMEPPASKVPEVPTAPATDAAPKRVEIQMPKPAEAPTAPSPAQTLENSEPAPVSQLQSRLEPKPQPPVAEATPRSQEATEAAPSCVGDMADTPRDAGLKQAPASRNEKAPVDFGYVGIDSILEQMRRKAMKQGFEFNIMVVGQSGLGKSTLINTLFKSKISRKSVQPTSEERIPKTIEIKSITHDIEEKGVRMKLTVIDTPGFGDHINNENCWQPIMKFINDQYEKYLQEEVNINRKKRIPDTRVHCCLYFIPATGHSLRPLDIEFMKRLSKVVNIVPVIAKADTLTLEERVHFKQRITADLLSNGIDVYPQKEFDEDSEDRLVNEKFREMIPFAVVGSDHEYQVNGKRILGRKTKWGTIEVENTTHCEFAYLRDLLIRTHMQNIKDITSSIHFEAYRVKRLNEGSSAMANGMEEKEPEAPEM
Assay: affinity purification with mass spectrometry; co-immunoprecipitation followed by LC-MS/MS; SEPT9-LV-CaSki compared with NC-LV-CaSki (legend of Figure S1); antibody used not stated

HMGB1 protein (from UniProt P09429 1-215)
binding: binds
